Reference: PMC6523062
These are yes or no findings as the source states them, for the method shown. Binding seen in cells or lysates may run through a third protein. Some entries that bind do so weakly or less than the wild type. Where a sequence is shown, tags or fusion partners need not be part of it.

Columns and labels:
[1] = molecular target: T1, cYFP-KIN11 (KIN11 fused to the C-terminal half of YFP) (Arabidopsis) (UniProt P92958); test: split reporter; BiFC (split YFP), transient co-expression in Nicotiana benthamiana leaf epidermal cells under a DEX-inducible promoter; leaves treated with DEX and 20 μg/ml antimycin A
T1 sequence: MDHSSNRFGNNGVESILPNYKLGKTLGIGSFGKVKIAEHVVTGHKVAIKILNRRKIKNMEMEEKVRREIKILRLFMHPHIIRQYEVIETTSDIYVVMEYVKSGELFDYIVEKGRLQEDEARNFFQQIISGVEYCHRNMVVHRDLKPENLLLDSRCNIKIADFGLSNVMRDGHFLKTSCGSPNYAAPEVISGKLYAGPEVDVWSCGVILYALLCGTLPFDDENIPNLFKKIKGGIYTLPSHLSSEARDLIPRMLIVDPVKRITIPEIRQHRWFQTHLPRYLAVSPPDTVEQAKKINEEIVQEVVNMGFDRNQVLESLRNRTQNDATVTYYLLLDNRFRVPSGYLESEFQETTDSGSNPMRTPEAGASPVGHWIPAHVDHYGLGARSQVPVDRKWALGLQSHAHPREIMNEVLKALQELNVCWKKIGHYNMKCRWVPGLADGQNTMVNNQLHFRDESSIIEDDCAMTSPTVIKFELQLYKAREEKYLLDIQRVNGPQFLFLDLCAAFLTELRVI

[2] = molecular target: T1, cYFP-KIN11 (KIN11 fused to the C-terminal half of YFP) (Arabidopsis); test: split reporter; BiFC (split YFP), transient co-expression in Nicotiana benthamiana leaf epidermal cells under a DEX-inducible promoter; normal conditions: DEX and DMSO, no antimycin A

binding [1]: binds
B1: nYFP-SOG1 (SOG1 fused to the N-terminal half of yellow fluorescent protein) (protein, UniProt Q6NQK2 1-449)
chain: MAGRSWLIDSNRIATKIMSASASSDPRQVVWKSNPSRHCPKCQHVIDNSDVVDDWPGLPRGVKFDPSDPEIIWHLLAKSGLSGLSSHPFIDEFIPTVNQDDGICYTHPKNLPGVKSDGTVSHFFHKAIKAYSTGTRKRRKIHDDDFGDVRWHKTGRTKPVVLDGVQRGCKKIMVLYGGKAVKTNWVMHQYHLGIEEDEKEGDYVVSKIFYQQPQQLVVKRGDKAEQEVSEDIFAAVTPTADPVTPKLATPEPRNAVRICSDSHIASDYVTPSDYVSAHEVSLAETSEVMCMEDEVQSIQPNHERPSSGPELEHGLENGAKEMLDDKEEQEKDRDNENQGEEDPTWFDSGSQFILNSQQLVEALSLCDDLLGSQDREENTNSGSLKDKQPCIADYAHLGPEDFKRDLEECQKIVLDPSNIELDTPPEFRLSQLEFGSQDSFLAWGTGKTD
binding [2]: no binding (condition: without antimycin A (DEX and DMSO))
